This passage reports AC50 results from PubChem BioAssay AID493014 (National Center for Advancing Translational Sciences (NCATS), 2011).

The nature of the assay: qHTS Assay to Find Inhibitors of Chronic Active B-Cell Receptor Signaling. The note with it: ABC-DLBCL IkBa-CBG/CBR reporter, luminescence ratio (green luciferase fused to IkBa over red control in TMD8 lymphoma cells), 4 h. Put shortly: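 Concentration-response series (up to 46 uM) were applied to TMD8 dual-reporter cells for 4 h at 37C with doxycycline. Green/red ratio, after filter-overlap correction, defined %Activity; red signal alone was normalised to basal cells and zero luminescence.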
(In general: Quantitative high-throughput screening tests each substance at several concentrations.)

Setting [1] is: measured here: CBR red luminescence, cell number.
The mark [2] stands for this setting: measured here: IkBa-CBG green luminescence.

Where “and” joins values, the source holds several entries; their conditions need not be identical. Identical values can stand only once. Some of the results follow. Further columns of the screen follow, without active or inactive calls. The list favours compounds with an active or inconclusive main result. The note in brackets gives the kind of curve behind each potency; many fits are weak.

The AC50 is the concentration giving half of the maximal activity seen.

Turning to `CCN(CC)S(=O)(=O)c1cc(C(=O)Nc2ccccc2[N+](=O)[O-])ccc1Cl`, the AC50 under setting [1] is 14.6 µM [falling, partial curve].
For `O=c1c2cc(F)ccc2sn1-c1ccc(F)cc1`, the AC50 under setting [1] is 16.4 µM [falling, partial curve, poor fit] and the AC50 under setting [2] was 16.4 µM [falling, partial curve, poor fit].
Consider `COc1ccc(C(=O)NCC2(c3ccccc3)CCCC2)c(OC)c1`, for which the AC50 under setting [1] was 6.31 µM [falling, partial curve].
On to `O=C(Nc1cccc(C(=O)N2CCOCC2)c1)NC1CCCCC1`, for which the AC50 under setting [1] was 8.91 µM [rising, partial curve, poor fit].
The same measure, in the same setting: the value for `O=C(c1ccc(COc2ccc(Cl)cc2Cl)o1)N1CCCC1` was 3.16 µM [rising, single point]; that for `C[C@@H]1[C@H](O)C[C@@]23COC(=O)C2=CCCC3[C@@]1(C)CCC1COC(=O)C1` (stereo partly specified) was 25.9 µM [rising, partial curve, poor fit].
Turning to `COc1cccc(/C=C/C(=O)Nc2cc(S(=O)(=O)N3CCOCC3)ccc2OC)c1`, the AC50 is, setting by setting: under setting [1], 6.51 µM [rising, single point]; under setting [2], 2.59 µM [falling, full curve].
As to `NS(=O)(=O)c1ccc(Sc2nc3ccccc3s2)c([N+](=O)[O-])c1`, under setting [1], the half-maximal activity concentration (AC50) is 1.12 µM [falling, full curve].
Take `COc1ccc2c(c1)[C@H]1[C@H](CO2)[C@H](c2ccccc2)[C@]2(C)C(=O)Nc3cc(F)ccc3C(=O)N12`: under setting [1], the AC50 is 4.11 µM [falling, full curve].
On to `CCOc1ccc(NC(=O)c2cc(OC)nc3ccccc23)cc1`, for which the AC50 under setting [2] was 11.2 µM [falling, partial curve].
For `COc1ccccc1C(=O)NNC(=O)c1cccc(C)c1`, under setting [1], the AC50 is 8.91 µM [falling, partial curve].
As for `O=C(Nc1ccc(S(=O)(=O)N2CCOCC2)cc1)c1cc([N+](=O)[O-])ccc1Cl`, under setting [1], the AC50 was 11.2 µM [falling, partial curve, poor fit].
Turning to `Cc1cccc(OCc2nnc(SCC(=O)N3c4ccccc4CCc4ccccc43)o2)c1`, under setting [1], the AC50 is 22.4 µM [falling, single point].
Still for that read-out and setting: the figure for `CCOC(=O)c1cnc2c(-c3ccccc3)c(C)nn2c1N` is 2.31 µM [rising, full curve, poor fit].
Same read-out and setting: the figure for `COc1ccc(C(=O)c2oc3ccccc3c2N)cc1` is 6.51 µM [falling, single point]; for `COc1ccc2nc(C)cc(SCC(=O)O)c2c1` it is 0.00461 µM [falling, full curve, poor fit]; for `Cn1c(=NC(=O)C(C)(C)C)sc2cccc(F)c21` it is 14.1 µM [rising, single point].
On the same count and under the same terms, the value for `O=C(Nc1ccccc1C(=O)N1CCOCC1)c1ccncc1` was 32.6 µM [falling, partial curve, poor fit]; that for `O=C(CN1C(=O)NC(Cc2c[nH]c3ccccc23)C1=O)Nc1cccc(S(=O)(=O)N2CCOCC2)c1` (stereo unspecified) was 35.5 µM [falling, single point].
`COc1ccc2c(c1)C(=O)N1[C@H]3c4cc(Br)ccc4OC[C@@H]3[C@H](c3ccccc3)[C@]1(C)C(=O)N2`: the AC50 is, setting by setting: under setting [1], 5.8 µM [falling, full curve]; under setting [2], 3.26 µM [rising, full curve, poor fit].
For `CCN1CCN(CCCNC(=O)c2cc3sccc3n2CC)CC1`, under setting [1], the AC50 was 29.1 µM [rising, single point].
Still for that read-out and setting: the figure for `Cc1cccc(C(=O)Nc2sc3c(c2C#N)CCCCC3)c1` is 0.326 µM [rising, full curve, poor fit]; for `C=CCNCC(=O)Nc1ccccc1SCC(=O)Nc1ccsc1C(=O)OC` it is 35.5 µM [falling, single point]; for `Cc1c(C)c2ccc(OS(C)(=O)=O)cc2oc1=O` it is 16.4 µM [rising, single point].
For the molecule `Cc1cc(C)c2c(c1)c(C)cc1nnc(SCC(=O)NCc3ccco3)n12`, the AC50 under setting [1] was 29.1 µM [falling, single point].
The same measure, in the same setting: the figure for `CCCCn1c(=S)[nH]c2ccc(N3CCOCC3)cc2c1=O` is 7.08 µM [falling, partial curve].
Same read-out and setting: the figure for `Cc1cc(NC(=O)c2ccc3c(c2)OCCO3)ccc1NC(=O)c1cc2ccccc2o1` is 17.8 µM [falling, single point]; for `CCCS(=O)(=O)N1CCCC(C(=O)c2cccc(Cl)c2)C1` (stereo unspecified) it is 6.31 µM [rising, single point]; for `COc1ccc2c(c1)Cc1sc(NC(C)=O)nc1-2` it is 2.59 µM [rising, full curve, poor fit].
The same measure, in the same setting: the value for `CCOC(=O)c1ccc(N=c2sc(C(=O)OC)cc(=O)n2CCCN2CCOCC2)cc1` was 11.2 µM [falling, single point] and 29.1 µM [falling, single point]; that for `Cc1ccc(N=C2NC(=O)/C(=C/c3cccn3C)S2)cc1` was 15.8 µM [falling, partial curve].
Regarding `CCc1ccc2[nH]c(=O)c(CN(Cc3ccc4c(c3)OCO4)Cc3nnnn3C3CCCC3)cc2c1`, the AC50 under setting [1] is 13 µM [falling, single point].
Regarding `CCOC(=O)C1CCN(C2=NC(=O)/C(=C/c3ccc(Cl)cc3)S2)CC1`, under setting [1], the AC50 was 15.8 µM [falling, single point].
The same measure, in the same setting: the value for `Cc1c(C(=O)Nc2ccc3nc(N4CCOCC4)sc3c2)oc2ccccc12` was 16.4 µM [falling, partial curve]; that for `Cc1nn(-c2ccc(C(=O)O)cc2)c(=O)c2ccccc12` was 14.1 µM [falling, partial curve].
As to `COc1ccc2c(c1)CC[C@@H]1[C@@H]2CC[C@]2(C)C(=O)CC[C@@H]12`, the AC50 was 18.4 µM [rising, single point] under setting [1] and 23.1 µM [falling, partial curve, poor fit] under setting [2].
As for `C/C(=N\Nc1ccccc1[N+](=O)[O-])c1ccc(N2CCOCC2)cc1`, the AC50 under setting [1] was 17.8 µM [rising, single point].
Take `COc1ccccc1/C=C/C(=O)Nc1cccnc1Cl`: the AC50 under setting [1] is 7.08 µM [falling, partial curve, poor fit].
Take `Nc1ncnc(N)c1N=Nc1ccccc1`: the AC50 under setting [1] is 14.1 µM [falling, partial curve, poor fit].
`COc1ccccc1NC(=O)c1nc[nH]c1C(=O)Nc1ccccc1OC`: under setting [1], the AC50 was 10 µM [falling, partial curve, poor fit].
`O=C(NNc1nc2c(F)cccc2s1)c1ccc(F)cc1`: the AC50 under setting [1] was 11.2 µM [falling, partial curve, poor fit].
Same read-out and setting: the figure for `CCN1CCN(C(=O)c2cc3nc(-c4ccccc4)cc(C(F)(F)F)n3n2)CC1` is 20.6 µM [rising, single point]; for `CC(C)CNC(=O)CO/N=C/c1ccccc1Cl` it is 35.5 µM [rising, single point].
On the same count and under the same terms, the figure for `CCC(=O)N1CCC2(CC1)Oc1ccc(F)cc1C(=O)C21CC(c2cccnc2)=NO1` (stereo unspecified) is 0.708 µM [rising, full curve, poor fit]; for `COC(=O)c1cc(NC(=O)c2ccccc2F)cc(C(=O)OC)c1` it is 2.51 µM [falling, partial curve, poor fit].
On the same count and under the same terms, the figure for `COc1ccc(C(C)=O)cc1CSc1nnc(-c2ccc(Cl)cc2)n1-c1ccccc1` is 11.2 µM [falling, single point]; for `Nc1ccc(C(=O)N/N=C\c2ccc(OC(=O)c3ccccc3Cl)cc2)cc1` it is 20 µM [falling, single point]; for `CCN(CCS(=O)(=O)c1ccc(Cl)cc1)C(=O)Nc1ccccc1` it is 5.01 µM [falling, partial curve, poor fit].
Turning to `O=C(Nc1ccc(Br)cc1)c1cccc(N2C(=O)CCC2=O)c1`, the AC50 under setting [1] was 35.5 µM [falling, single point].
The same measure, in the same setting: the value for `CCOc1ccc2nc(Cl)c(C3CC(c4ccccc4)=NN3C(=O)c3cccs3)cc2c1` (stereo unspecified) was 0.366 µM [falling, full curve, poor fit].
For the molecule `COC(=O)c1ccccc1NC(=O)c1cnn2cccnc12`, the AC50 under setting [1] is 35.5 µM [falling, single point].
On the same count and under the same terms, the figure for `CC(=O)c1ccc(S(=O)(=O)N2CCc3ccccc3C2)cc1` is 10 µM [rising, partial curve, poor fit]; for `CN1C(=O)/C(=C2\SC(=S)N(CCCCCC(=O)O)C2=O)c2ccccc21` it is 4.47 µM [falling, full curve]; for `CC1=NN(C(N)=S)C(=O)C1N=Nc1ccc(Br)cc1` (stereo unspecified) it is 17.8 µM [rising, single point].
Still for that read-out and setting: the figure for `CC(C)(C)CN1CCN(Cc2cccnc2)CC1CCO` (stereo unspecified) is 2.24 µM [rising, full curve]; for `O=C(CC1NCCNC1=O)Nc1ccc([N+](=O)[O-])cc1` (stereo unspecified) it is 5.62 µM [rising, full curve, poor fit]; for `CCCCOc1ccc(C(=O)N2CCN(CC(=O)Nc3ccc(C)cc3)CC2)cc1OC` it is 10 µM [falling, partial curve, poor fit].
Same read-out and setting: the figure for `CN(CC(=O)Nc1ccccc1Cl)C(=O)COC(=O)/C=C/c1ccc(C(F)(F)F)cc1` is 35.5 µM [falling, single point].
As for `COC(=O)C1=NN(C(=O)c2cccc(Cl)c2)C(O)(C(C)(C)C)C1` (stereo unspecified), under setting [1], the AC50 was 6.51 µM [falling, partial curve].
The same measure, in the same setting: the figure for `COCCNC(=O)c1cc2oc3ccccc3c2n1C` is 6.51 µM [rising, single point]; for `COC(=O)c1ccc(COc2ccc(C3C4=C(CCCC4=O)Nc4onc(C)c43)cc2)cc1` (stereo unspecified) it is 0.164 µM [falling, full curve, poor fit]; for `Cc1cccc(NC(=O)CSc2nsc(SCC(=O)Nc3cccc(C)c3)c2C#N)c1` it is 1.16 µM [falling, full curve, poor fit].
